# Some of these results come from one statement about several compounds together.
# Tested on: HDR in HEK293 reporter cell line (truncated EGFP)
# Assay: HDR assay with paired nickases Cas9n D10A RNP and ssOligo donor, EGFP-positive cells by FACS
# Type: cell-based, human
# Details: initial screen with paired nickases; cut-off 20% (~fold change ≥1.2)
# Method: More specifically, an HDR assay using a HEK reporter cell line containing truncated EGFP may be used. These cells may be transfected with a transfection complex containing the CRISPR endonuclease and a donor sequence. Cas9 RNPs may be prepared by following the manufacturers' guidelines. The transfection complex may be prepared by adding Cas9 RNP or Cas9 nickase RNP, along with ssOligo donor and lipofectamine 2000 in Optimem. Reagents should be mixed well and incubated for 20 mins. After 20 mins, 50 μlof transfection complex (at an optimal concentration—see the Examples herein) may be transferred in a 96 well plate and 50 μlHEK293 reporter cell line suspension (9×10^5 cells/ml) added followed by 50 μl of cell culture medium containing appropriate concentration(s) of inhibitor(s). Cells may be incubated at 37° C. in a CO2 incubator for 24 hours and then inhibitor-containing media should be replaced with fresh media without inhibitor. […] Samples may be run on FACS and the percentage of EGFP in the population measured. […]
# To understand if inhibitors have any influence on HDR mediated by paired nickases, we carried out an HDR assay in the presence of the small molecule inhibitor library. […] After 48 hours, the cells were trypsinized and resuspended in 10% FBS containing PBS and analysed by FACS. EGFP-positive cells were monitored; these represented successful HDR events. […]
row,Structure (SMILES),increase in HDR efficiency
1,O=c1cc(N2CCOCC2)oc2c(-c3cccc4c3sc3ccccc34)cccc12 [NU7441],≥ 20%
2,O=c1cc(N2CCOCC2)oc2c1ccc1ccccc12 [NU7026],≥ 20%
